Like-named read-outs stand apart in the source and are kept apart here. Results are given in words; binding and its absence hold for the method and conditions named. In cells and extracts the contact can be indirect. These calls come from enrichment with a bait or labelling near it, and not all partners need be listed. Values belong to the molecule of their own block, whether it stands above or below them.
Columns and labels:
[1] = biological target: TurboID-TRIM52 fusion (human) (UniProt Q96A61); test: proximity labelling
[2] = biological target: TurboID-TRIM52 fusion (human) (UniProt Q96A61); test: proximity labelling; remark: listed apart in the source

Amino acid sequences for entries named in this document (tags omitted).
UniProt Q96A61: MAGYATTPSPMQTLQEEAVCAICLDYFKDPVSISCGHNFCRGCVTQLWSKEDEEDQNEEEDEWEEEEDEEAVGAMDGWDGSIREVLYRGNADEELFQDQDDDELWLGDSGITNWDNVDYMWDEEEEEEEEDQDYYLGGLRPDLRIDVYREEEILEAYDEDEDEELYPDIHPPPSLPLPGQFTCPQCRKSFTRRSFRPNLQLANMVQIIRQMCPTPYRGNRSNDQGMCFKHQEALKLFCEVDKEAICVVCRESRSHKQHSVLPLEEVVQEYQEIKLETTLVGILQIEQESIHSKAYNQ
UniProt Q7Z6Z7: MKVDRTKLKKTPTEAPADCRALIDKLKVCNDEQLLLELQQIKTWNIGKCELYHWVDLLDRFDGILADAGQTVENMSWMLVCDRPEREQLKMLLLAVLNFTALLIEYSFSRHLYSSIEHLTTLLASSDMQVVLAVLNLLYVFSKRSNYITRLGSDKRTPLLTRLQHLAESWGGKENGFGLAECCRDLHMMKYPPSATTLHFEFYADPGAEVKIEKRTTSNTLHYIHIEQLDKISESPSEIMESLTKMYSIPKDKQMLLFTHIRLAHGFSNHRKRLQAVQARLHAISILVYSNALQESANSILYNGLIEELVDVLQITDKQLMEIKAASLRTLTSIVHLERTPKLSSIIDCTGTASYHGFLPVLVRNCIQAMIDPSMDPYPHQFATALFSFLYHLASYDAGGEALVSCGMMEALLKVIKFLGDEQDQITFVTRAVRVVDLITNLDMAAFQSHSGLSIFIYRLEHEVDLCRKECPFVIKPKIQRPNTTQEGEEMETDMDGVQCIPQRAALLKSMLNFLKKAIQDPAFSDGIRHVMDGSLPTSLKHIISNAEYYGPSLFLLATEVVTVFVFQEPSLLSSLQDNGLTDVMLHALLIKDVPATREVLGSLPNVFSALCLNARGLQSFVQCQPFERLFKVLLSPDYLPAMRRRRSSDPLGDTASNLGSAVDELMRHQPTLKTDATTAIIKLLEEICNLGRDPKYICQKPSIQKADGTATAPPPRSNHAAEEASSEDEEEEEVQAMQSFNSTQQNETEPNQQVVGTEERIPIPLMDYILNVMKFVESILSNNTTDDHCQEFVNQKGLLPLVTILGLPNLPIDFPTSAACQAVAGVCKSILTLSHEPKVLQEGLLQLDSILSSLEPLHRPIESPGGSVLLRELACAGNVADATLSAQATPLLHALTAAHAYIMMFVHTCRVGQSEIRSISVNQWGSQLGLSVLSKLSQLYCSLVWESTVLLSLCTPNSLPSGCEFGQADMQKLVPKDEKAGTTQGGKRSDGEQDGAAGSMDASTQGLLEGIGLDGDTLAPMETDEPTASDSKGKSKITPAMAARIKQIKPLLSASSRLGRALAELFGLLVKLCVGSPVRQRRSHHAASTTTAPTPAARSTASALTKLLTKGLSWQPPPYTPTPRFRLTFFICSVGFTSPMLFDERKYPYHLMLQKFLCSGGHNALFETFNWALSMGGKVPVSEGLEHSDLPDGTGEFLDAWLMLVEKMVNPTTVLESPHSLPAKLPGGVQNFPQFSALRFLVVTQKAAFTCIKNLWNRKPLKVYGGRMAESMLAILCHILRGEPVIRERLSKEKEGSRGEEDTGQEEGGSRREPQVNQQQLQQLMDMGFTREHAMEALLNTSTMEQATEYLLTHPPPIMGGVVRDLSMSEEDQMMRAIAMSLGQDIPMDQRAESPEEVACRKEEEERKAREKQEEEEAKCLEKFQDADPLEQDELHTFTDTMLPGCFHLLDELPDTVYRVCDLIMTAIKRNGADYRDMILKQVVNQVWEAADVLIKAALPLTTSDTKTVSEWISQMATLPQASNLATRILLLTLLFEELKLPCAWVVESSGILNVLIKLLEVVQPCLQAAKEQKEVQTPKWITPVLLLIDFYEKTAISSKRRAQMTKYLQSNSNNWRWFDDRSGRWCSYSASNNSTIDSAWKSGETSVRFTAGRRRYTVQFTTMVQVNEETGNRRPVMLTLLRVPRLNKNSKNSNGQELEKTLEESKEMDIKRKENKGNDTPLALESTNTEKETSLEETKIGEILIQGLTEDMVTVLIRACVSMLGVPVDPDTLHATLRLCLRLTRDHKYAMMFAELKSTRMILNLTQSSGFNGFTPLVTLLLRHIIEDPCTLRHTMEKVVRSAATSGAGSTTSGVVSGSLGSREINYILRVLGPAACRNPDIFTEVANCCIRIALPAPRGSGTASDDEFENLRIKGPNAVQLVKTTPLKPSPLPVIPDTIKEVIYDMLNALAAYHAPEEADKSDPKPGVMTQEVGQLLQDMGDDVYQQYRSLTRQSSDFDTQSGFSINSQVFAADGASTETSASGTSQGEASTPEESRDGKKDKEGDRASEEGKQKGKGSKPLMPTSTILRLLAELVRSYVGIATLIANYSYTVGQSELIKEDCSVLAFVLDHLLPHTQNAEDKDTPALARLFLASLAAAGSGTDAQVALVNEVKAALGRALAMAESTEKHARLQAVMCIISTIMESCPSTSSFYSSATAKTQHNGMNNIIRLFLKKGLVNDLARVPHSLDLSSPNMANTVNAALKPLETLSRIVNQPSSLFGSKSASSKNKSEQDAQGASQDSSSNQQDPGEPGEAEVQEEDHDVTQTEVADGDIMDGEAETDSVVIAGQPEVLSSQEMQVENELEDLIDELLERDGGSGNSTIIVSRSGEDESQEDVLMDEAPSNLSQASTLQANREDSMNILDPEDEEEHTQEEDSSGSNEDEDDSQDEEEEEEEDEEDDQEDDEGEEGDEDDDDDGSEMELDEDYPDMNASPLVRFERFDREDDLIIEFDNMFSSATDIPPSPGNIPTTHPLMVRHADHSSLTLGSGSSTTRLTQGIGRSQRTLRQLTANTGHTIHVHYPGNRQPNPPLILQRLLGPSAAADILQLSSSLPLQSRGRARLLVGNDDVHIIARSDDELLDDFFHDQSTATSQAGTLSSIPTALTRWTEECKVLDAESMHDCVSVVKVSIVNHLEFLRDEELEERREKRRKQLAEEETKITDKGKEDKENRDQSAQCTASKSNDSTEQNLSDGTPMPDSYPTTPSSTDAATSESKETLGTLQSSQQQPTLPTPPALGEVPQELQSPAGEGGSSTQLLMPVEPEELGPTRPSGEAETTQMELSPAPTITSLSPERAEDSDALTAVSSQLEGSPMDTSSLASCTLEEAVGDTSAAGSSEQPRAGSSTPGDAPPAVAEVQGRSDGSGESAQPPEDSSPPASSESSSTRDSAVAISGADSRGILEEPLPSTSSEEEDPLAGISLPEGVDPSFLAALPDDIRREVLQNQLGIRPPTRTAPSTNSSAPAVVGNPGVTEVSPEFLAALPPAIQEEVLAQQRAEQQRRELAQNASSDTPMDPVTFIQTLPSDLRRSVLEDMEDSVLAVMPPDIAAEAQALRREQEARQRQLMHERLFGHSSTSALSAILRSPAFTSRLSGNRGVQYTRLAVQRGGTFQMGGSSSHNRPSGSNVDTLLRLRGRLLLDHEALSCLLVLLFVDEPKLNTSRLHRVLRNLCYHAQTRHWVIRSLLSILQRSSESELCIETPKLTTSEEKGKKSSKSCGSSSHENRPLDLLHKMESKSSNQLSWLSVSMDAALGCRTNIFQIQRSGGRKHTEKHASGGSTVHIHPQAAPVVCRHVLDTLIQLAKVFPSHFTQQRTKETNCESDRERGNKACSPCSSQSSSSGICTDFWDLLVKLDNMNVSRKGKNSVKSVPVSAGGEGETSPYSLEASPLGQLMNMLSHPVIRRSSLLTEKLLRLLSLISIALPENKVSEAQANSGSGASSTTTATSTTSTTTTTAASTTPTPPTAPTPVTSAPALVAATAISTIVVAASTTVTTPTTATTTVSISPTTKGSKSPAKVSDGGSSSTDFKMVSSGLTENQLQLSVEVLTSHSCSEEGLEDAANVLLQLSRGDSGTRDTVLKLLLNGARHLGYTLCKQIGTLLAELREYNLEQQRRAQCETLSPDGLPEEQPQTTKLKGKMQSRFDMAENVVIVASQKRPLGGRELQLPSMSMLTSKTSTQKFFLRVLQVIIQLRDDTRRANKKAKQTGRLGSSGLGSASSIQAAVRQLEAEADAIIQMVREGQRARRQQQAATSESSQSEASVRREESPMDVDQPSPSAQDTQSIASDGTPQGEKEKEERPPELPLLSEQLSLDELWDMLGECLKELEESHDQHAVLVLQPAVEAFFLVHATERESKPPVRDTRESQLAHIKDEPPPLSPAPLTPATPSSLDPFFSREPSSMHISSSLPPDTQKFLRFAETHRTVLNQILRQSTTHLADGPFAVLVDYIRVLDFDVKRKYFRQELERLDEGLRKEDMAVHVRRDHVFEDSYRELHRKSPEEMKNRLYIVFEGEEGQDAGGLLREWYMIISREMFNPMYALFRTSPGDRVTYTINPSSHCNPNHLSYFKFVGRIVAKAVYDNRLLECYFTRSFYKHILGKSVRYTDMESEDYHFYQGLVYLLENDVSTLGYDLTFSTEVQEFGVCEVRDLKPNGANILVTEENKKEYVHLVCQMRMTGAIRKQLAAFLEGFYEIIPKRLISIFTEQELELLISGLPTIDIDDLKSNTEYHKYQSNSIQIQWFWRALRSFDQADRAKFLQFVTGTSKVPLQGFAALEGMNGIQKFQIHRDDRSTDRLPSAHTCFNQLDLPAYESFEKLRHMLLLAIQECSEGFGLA

Molecule: BIRC6 (endogenous) (from UniProt Q9NR09 1-4857) (enzyme)
binding [1]: binds

Molecule: HUWE1 (endogenous) (from UniProt Q7Z6Z7 1-4374) (enzyme)
binding [1]: binds

Second part, the molecule after the results:

binding [2]: binds
B1: Tyrosyl-DNA Phosphodiesterase 2 (TDP2) (enzyme, UniProt O95551 1-362)
chain: MELGSCLEGGREAAEEEGEPEVKKRRLLCVEFASVASCDAAVAQCFLAENDWEMERALNSYFEPPVEESALERRPETISEPKTYVDLTNEETTDSTTSKISPSEDTQQENGSMFSLITWNIDGLDLNNLSERARGVCSYLALYSPDVIFLQEVIPPYYSYLKKRSSNYEIITGHEEGYFTAIMLKKSRVKLKSQEIIPFPSTKMMRNLLCVHVNVSGNELCLMTSHLESTRGHAAERMNQLKMVLKKMQEAPESATVIFAGDTNLRDREVTRCGGLPNNIVDVWEFLGKPKHCQYTWDTQMNSNLGITAACKLRFDRIFFRAAAEEGHIIPRSLDLLGLEKLDCGRFPSDHWGLLCNLDIIL

binding [2]: binds
B2: Zinc Finger Protein 451 (ZNF451) (enzyme, UniProt Q9Y4E5 1-1061)
chain: MGDPGSEIIESVPPAGPEASESTTDENEDDIQFVSEGPLRPVLEYIDLVSSDDEEPSTSYTDENIKRKDHIDYQKDKVALTLARLARHVEVEKQQKEEKNRAFREKIDFQHAHGLQELEFIRGHSDTEAARLCVDQWLKMPGLKTGTINCGTKSSFRRGGHTWVSGKPILCPIMHCNKEFDNGHLLLGHLKRFDHSPCDPTITLHGPFFSSFACVVCYKKFVTQQQYRDHLFDKEATDDGHNNNLLPQIIQCFACPNCFLLFSRKEECSKHMSGKNHFHQSFKLGDNKGIAHPISFPSFAKKLLISLCKDVPFQVKCVACHKTLRSHMELTAHFRVHCRNAGPVAVAEKSITQVAEKFILRGYCPDCNQVFVDETSTQNHKQNSGHKVRVINSVEESVLLYCHSSEGNKDPSSDLHLLLDQSKFSSLKRTMSIKESSSLECIAIPKKKMNLKDKSHEGVACVQKEKSVVKTWFCECNQRFPSEDAVEKHVFSANTMGYKCVVCGKVCDDSGVIRLHMSRIHGGAHLNNFLFWCRTCKKELTRKDTIMAHVTEFHNGHRYFYEMDEVEGETLPSSSTTLDNLTANKPSSAITVIDHSPANSSPRGKWQCRICEDMFDSQEYVKQHCMSLASHKFHRYSCAHCRKPFHKIETLYRHCQDEHDNEIKIKYFCGLCDLIFNVEEAFLSHYEEHHSIDYVFVSEKTETSIKTEDDFPVIETSNQLTCGCRESYICKVNRKEDYSRCLQIMLDKGKLWFRCSLCSATAQNLTDMNTHIHQVHKEKSDEEEQQYVIKCGTCTKAFHDPESAQQHFHRKHCFLQKPSVAHFGSEKSNLYKFTASASHTERKLKQAINYSKSLDMEKGVENDLSYQNIEEEIVELPDLDYLRTMTHIVFVDFDNWSNFFGHLPGHLNQGTFIWGFQGGNTNWKPPLNCKIYNYLNRIGCFFLHPRCSKRKDAADFAICMHAGRLDEQLPKQIPFTILSGDQGFLELENQFKKTQRPAHILNPHHLEGDMMCALLNSISDTTKECDSDDNMGAKNTSIGEEFISTEDVELEEAIRRSLEEM
